Test: Oligomer formation of ANP peptides by Western analysis

WT ANP: wild-type atrial natriuretic peptide (28 amino acids), incubated to form oligomers
oligomer development after incubation in PBS for 24h (PBS, 24h): does not | fibrillogenesis / oligomer formation (peptides oligomerized at 23° C. for variable time points, Western analysis): time- and IsoLG-dependent fibrillogenesis

— US20240189291A1, “Prevention And Treatment Of Atrial Fibrillation/Flutter With Gamma-Ketoaldehyde Scavengers” (Vanderbilt University, priority 2016, published 2024)
